Measurements reported in patent publication US20090274682A1.
No constants are given. Whether binding was seen depends on the method and setting. Some entries that bind do so weakly or less than the wild type.

The chains behind the UniProt entries cited, without tags or fusion partners. Where a name states a change or a piece, a line headed by the entry shows the natural chain unless it says otherwise.
UniProt P30153: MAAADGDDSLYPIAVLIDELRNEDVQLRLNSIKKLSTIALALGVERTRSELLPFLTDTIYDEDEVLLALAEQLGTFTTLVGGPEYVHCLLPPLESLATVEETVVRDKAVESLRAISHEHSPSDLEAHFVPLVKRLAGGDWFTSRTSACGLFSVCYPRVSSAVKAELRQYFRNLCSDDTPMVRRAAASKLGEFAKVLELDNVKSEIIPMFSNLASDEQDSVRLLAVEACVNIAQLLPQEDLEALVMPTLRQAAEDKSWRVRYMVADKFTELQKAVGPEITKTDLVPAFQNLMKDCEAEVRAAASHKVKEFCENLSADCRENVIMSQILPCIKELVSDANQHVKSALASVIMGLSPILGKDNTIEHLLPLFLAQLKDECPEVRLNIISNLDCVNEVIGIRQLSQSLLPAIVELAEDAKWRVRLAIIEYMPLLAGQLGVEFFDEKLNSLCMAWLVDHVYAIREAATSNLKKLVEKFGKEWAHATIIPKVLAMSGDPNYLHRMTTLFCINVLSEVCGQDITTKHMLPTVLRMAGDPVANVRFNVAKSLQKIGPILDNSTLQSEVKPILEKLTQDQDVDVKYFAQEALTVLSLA

Biological target: PP2A core enzyme (AC heterodimer) involving the full-length A subunit (human) (UniProt P30153)
Test: complex fractionated by size exclusion chromatography (FIG. 10)

binding: binds
B1: PME-1 M335D (enzyme)
chain: MSALEKSMHLGRLPSRPPLPGSGGSQSGAKMRMGPGRKRDFSPVPWSQYFESMEDVEVENETGKDTFRVYKSGSEGPVLLLLHGGGHSALSWAVFTAAIISRVQCRIVALDLRSHGETKVKNPEDLSAETMAKDVGNVVEAMYGDLPPPIMLIGHSMGGAIAVHTASSNLVPSLLGLCMIDVVEGTAMDALNSMQNFLRGRPKTFKSLENAIEWSVKSGQIRNLESARVSMVGQVKQCEGITSPEGSKSIVEGIIEEEEEDEEGSESISKRKKEDDMETKKDHPYTWRIELAKTEKYWDGWFRGLSNLFLSCPIPKLLLLAGVDRLDKDLTIGQDQGKFQMQVLPQCGHAVHEDAPDKVAEAVATFLIRHRFAEPIGGFQCVFPGC
